In the assay the target is cell division cycle-42 (CDC42) (human (endogenous in HCT116 and RKO)) (UniProt P60953). The assay can be described thus: co-IP; cell lysate incubated with CDC42 antibody (rabbit, ab187643) overnight at 4 °C, A/G magnetic beads, low pH elution, blot for RhoGDIα; HCT116 and RKO cells with NDRG1 overexpression or knockdown and their controls.

Amino acid sequences for entries named in this document (tags omitted).
UniProt P60953: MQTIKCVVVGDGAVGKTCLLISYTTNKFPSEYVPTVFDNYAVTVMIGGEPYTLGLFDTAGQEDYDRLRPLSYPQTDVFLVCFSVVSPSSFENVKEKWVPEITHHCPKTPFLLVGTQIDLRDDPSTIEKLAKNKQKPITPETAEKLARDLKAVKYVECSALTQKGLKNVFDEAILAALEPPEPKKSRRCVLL

Our source for the binding values is paper PMC8120473.

Results are given in words; binding and its absence hold for the method and conditions named. Binding seen in cells or lysates may run through a third protein. Some entries that bind do so weakly or less than the wild type.

B1: RhoGDIα (protein, UniProt P52565 1-204)
chain: MAEQEPTAEQLAQIAAENEEDEHSVNYKPPAQKSIQEIQELDKDDESLRKYKEALLGRVAVSADPNVPNVVVTGLTLVCSSAPGPLELDLTGDLESFKKQSFVLKEGVEYRIKISFRVNREIVSGMKYIQHTYRKGVKIDKTDYMVGSYGPRAEEYEFLTPVEEAPKGMLARGSYSIKSRFTDDDKTDHLSWEWNLTIKKDWKD
As for B1, the binding result was “binds”.
